From publication PMC9035715
These are yes or no findings as the source states them, for the method shown. Some binding calls cover weakened binding; strength is not graded here.

The chains behind the UniProt entries cited, without tags or fusion partners. Residues count along the entry.
UniProt Q9Y6K9, residues 241-419: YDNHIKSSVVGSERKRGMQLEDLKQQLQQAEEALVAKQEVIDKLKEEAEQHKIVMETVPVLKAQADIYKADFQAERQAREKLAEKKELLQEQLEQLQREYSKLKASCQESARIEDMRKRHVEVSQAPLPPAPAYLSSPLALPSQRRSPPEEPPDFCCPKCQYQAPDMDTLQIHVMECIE

Target: GST-NEMO^241–419 (human) (UniProt Q9Y6K9)
Assay: pull-down; purified GST-NEMO fusions mixed with purified IKK proteins in the presence of Ub4, 1 h at 4 °C, then glutathione–agarose beads 2 h at 4 °C; 25 mM Tris–HCl pH 7.5, 150 mM NaCl, 1 mM EDTA, 0.5% NP-40, 0.55% Triton X-100, 5% glycerol, 1 mM DTT; four washes; Western blot; both purified

binding: binds weakly
B1: IKK1^10–667 (domain or fragment, UniProt O15111 10-667)
chain: GAGGPWEMRERLGTGGFGNVCLYQHRELDLKIAIKSCRLELSTKNRERWCHEIQIMKKLNHANVVKACDVPEELNILIHDVPLLAMEYCSGGDLRKLLNKPENCCGLKESQILSLLSDIGSGIRYLHENKIIHRDLKPENIVLQDVGGKIIHKIIDLGYAKDVDQGSLCTSFVGTLQYLAPELFENKPYTATVDYWSFGTMVFECIAGYRPFLHHLQPFTWHEKIKKKDPKCIFACEEMSGEVRFSSHLPQPNSLCSLVVEPMENWLQLMLNWDPQQRGGPVDLTLKQPRCFVLMDHILNLKIVHILNMTSAKIISFLLPPDESLHSLQSRIERETGINTGSQELLSETGISLDPRKPASQCVLDGVRGCDSYMVYLFDKSKTVYEGPFASRSLSDCVNYIVQDSKIQLPIIQLRKVWAEAVHYVSGLKEDYSRLFQGQRAAMLSLLRYNANLTKMKNTLISASQQLKAKLEFFHKSIQLDLERYSEQMTYGISSEKMLKAWKEMEEKAIHYAEVGVIGYLEDQIMSLHAEIMELQKSPYGRRQGDLMESLEQRAIDLYKQLKHRPSDHSYSDSTEMVKIIVHTVQSQDRVLKELFGHLSKLLGCKQKIIDLLPKVEVALSNIKEADNTVMFMQGKRQKEIWHLLKIACTQSSARSLV
